# Values from PubChem BioAssay AID743454 (Peter MacCallum Cancer Centre, 2014)
# Purpose: 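Genes whose loss kills vorinostat-resistant colon cancer cells under vorinostat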 (primary screen)
# System: human HCT116-VR colon cancer cells, selected for vorinostat resistance
# Reagent: siRNA pool against human genes, 40 nM siRNA pool
# Duration: vorinostat for 24 h, read-out about 72 h after transfection
# Conditions: vorinostat at 2.5 µM final
# Measured: 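Cell viability by CellTiter-Fluor and caspase 3/7 activity by luminescence, each scaled to mock wells per plate, duplicates averaged, then robust z-scored over all plates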
# Reading the numbers: viability robust z-score: higher = more viable cells than screen typical; caspase robust z-score: higher = more caspase 3/7 activity than screen typical
# Rule for the call: 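a knock-down is a hit when classed RV1 or RV2 for lowered viability, or CA1 or CA2 for caspase activation; those lethal without drug were dropped; hits were retested singly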
# Shown is a random part of about 18,000 deposited reagents. 450 of all reagents (2.5%) count as active. 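Single biological run; no consistent viability z cut-off exists, so the class columns, not z-scores, define the calls.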 Unmarked entries are inactive.
gene,viability hit class,caspase hit class,viability robust z-score,caspase robust z-score
PIK3R4,no change,no change,-0.3,0.7
OR4C11,no change,no change,1.03,-1.17
AK5,no change,no change,1.44,0.48
ACRV1,no change,no change,0.83,1.94
WASF1,no change,no change,0.23,-0.56
KLRC1,no change,no change,0.3,-1.15
ABHD17A,no change,no change,-2.33,4.06
OR8K3,no change,no change,-1.42,0.09
EP300,no change,no change,-1.06,-1.17
KLHL32,no change,no change,-1.97,-0.29
NT5C2,no change,no change,1.25,-0.78
PLXNB1,no change,no change,-3.87,1.36
ST6GALNAC1,no change,no change,-0.42,1.81
SLIRP-OT1,no change,no change,0.94,1.85
HOGA1,no change,no change,-1.52,2.06
ETS2-AS1,no change,no change,1.02,0.11
CD33,no change,no change,0.46,0.8
C1orf226,no change,no change,0.14,4.19
TMEM80,no change,no change,0.21,-0.88
TTLL5,no change,no change,-2.1,-0.84
CCR3,no change,no change,0.26,0.48
CFAP20,no change,no change,-0.46,2.23
ABCA8,no change,no change,-0.1,0.12
RPL8,no change,no change,-4.57,-0.6
ABHD14B,no change,no change,-1.84,1.38
ARHGAP11B,no change,no change,-0.74,-0.44
TRIM23,no change,no change,-0.15,-0.64
CORT,no change,no change,-2.25,-0.52
ARRDC1-AS1,no change,no change,-0.58,-0.35
CCDC197,no change,no change,-0.75,-0.65
IL1RAP,no change,no change,0.24,4.77
CT55,no change,no change,1.02,-0.7
CRHR2,no change,no change,0.36,-0.85
AMN1,no change,no change,0.79,-0.38
MRPL43,no change,no change,0.18,-0.64
SAP18,no change,no change,-2.02,4.37
ADAM17,no change,no change,0.96,-0.79
BPIFB4,no change,no change,0.2,2.04
UVSSA,no change,no change,-0.01,-0.42
FTL,no change,no change,0.94,0.7
STOML2,no change,no change,-1.4,0.71
ADAMTS20,no change,no change,0.1,-0.01
PLA2G6,no change,no change,0.02,1.07
SERPINB1,no change,no change,-0.54,-0.96
ZNF273,no change,no change,0.58,-0.64
MXD1,no change (active),CA2 (caspase activation),-2.08,5.81
RNF5,no change,no change,-0.28,2.76
STAP2,no change,no change,-0.36,1
GNE,no change,no change,-0.83,1.66
RARA,no change,no change,-0.97,-0.96
VDAC2,no change,no change,-2.64,4.53
IL27RA,no change,no change,-1.25,-0.22
SNW1,no change,no change,-2.38,-0.73
ALAS2,no change,no change,-0.99,0.37
KIF13A,no change,no change,-0.24,-0.78
GPKOW,no change,no change,-2.15,4.64
RIOX2,no change,no change,0.18,-0.31

Reagents listed so far with an active call:
gene,viability hit class,caspase hit class,viability robust z-score,caspase robust z-score
MXD1,no change (active),CA2 (caspase activation),-2.08,5.81
